Results as given in the supplement of paper PMC6445147.
Single values of this data set are uncertain.

B1: human tRNA-Pro; a variant is named by its letters at N, in order (parent)
chain: GGCTCGTTGGTCTAGNGGTATGATTCTCGCTTAGGGTGCGAGAGGTCCCGGGTTCNNATCCCGGACGAGCCC

How the values were obtained:
[1] = variants of: B1; test: tRNA Pol-III promoter activity, log2 (circRNA frequency / plasmid DNA frequency) (log2 ratio); higher = stronger promoter activity; settings: HEK293T; construct: no Pol-II promoter ((-)CMV library)
[2] = variants of: B1; test: tRNA 3' processing efficiency (processed reads / all reads, maximum-likelihood estimate) (fraction); higher = more efficient 3' processing; settings: HEK293T; construct: no Pol-II promoter ((-)CMV library)
[3] = variants of: B1; test: tRNA 5' processing efficiency (processed reads / all reads, maximum-likelihood estimate) (fraction); higher = more efficient 5' processing; settings: HEK293T; construct: CMV Pol-II promoter ((+)CMV library, decapped)

Row | Variant | tRNA Pol-III promoter activity (log2) [1] | tRNA 3' processing efficiency [2] | tRNA 5' processing efficiency [3]
1 | TAA A20G T53A | 2.55 | 0.38 | 
2 | TAA T53A A58G | 5.53 | 0.52 | 
3 | CAT | 2.44 | 0.27 | 
4 | GAA T8A A58G T59G | 6.25 | 0.6 | 
5 | GAA G9A A20T T59C | 3.7 | 0.25 | 
6 | GAA A14T T19A A58G | 4.59 | 0.33 | 
7 | GAA G17C T59G | 1.83 | 0.27 | 
8 | TAA G15T T54A | 3.43 | 0.14 | 
9 | GAA T19C T53A A58T | 3.94 | 0.4 | 
10 | GAA T8C C55T | 0.62 | 0.1 | 
11 | GCA G17T | 1.22 | 0.2 | 
12 | GTA A58G T59C | 4.62 | 0.41 | 
13 | GAA G15A G17C A20G | 3.57 | 0.62 | 
14 | GAG G18C | 0.227 | 0.2 | 
15 | GAA T53A A58T | 0.621 | 0.4 | 
16 | CAA | 0.665 | 0.25 | 0.27
17 | GGA C55T A58G | 4.01 | 0.29 | 
18 | TAT G18C | 1.76 | 0.25 | 
19 | GTA A14T T59A | 4.62 | 0.17 | 
20 | GAA A14T T59G | 0.104 | 0.44 | 
21 | CAA A58T T59G | 5.39 | 0.73 | 
22 | CAT A14C G15T | 4.26 | 0.4 | 
23 | CAA T19A T59C | 4.74 | 0.71 | 

A different layout for part of the listing above.

| Row | Variant | tRNA Pol-III promoter activity (log2) [1] | tRNA 3' processing efficiency [2] | tRNA 5' processing efficiency [3] |
| --- | --- | --- | --- | --- |
| 14 | GAG G18C | 0.227 | 0.2 |  |
| 15 | GAA T53A A58T | 0.621 | 0.4 |  |
| 16 | CAA | 0.665 | 0.25 | 0.27 |
| 17 | GGA C55T A58G | 4.01 | 0.29 |  |

Following part.

Row | Variant | tRNA Pol-III promoter activity (log2) [1] | tRNA 3' processing efficiency [2] | tRNA 5' processing efficiency [3]
24 | GAA G15C A58G | -0.382 | 0.33 | 
25 | CCA G9A | 3.13 | 0.22 | 
26 | GCA G17T A58C | 4.08 | 0.7 | 
27 | GCA T59A | 2.67 | 0.16 | 0.25
28 | GGG A58T | 6.02 | 0.11 | 
29 | TTA T8C A58T | 7.51 | 0.5 | 
30 | GAT G9T A58G | 3.06 | 0.4 | 
31 | GAT G15C T19A T59A | 6.53 | 0.5 | 
32 | GGA G9T T59A | 5.07 | 0.55 | 
33 | GAA A58G T59G | 2.83 | 0.26 | 
34 | TAA A14C T19G T59G | 8.11 | 0.17 | 
35 | GTA A14T G17T | 1.51 | 0.33 | 
36 | GAG A14T G17C | 2.05 | 0.11 | 
37 | GAA T19C T59A | 1.64 | 0.34 | 0.25
38 | GAT T19A | 1.32 | 0.44 | 
39 | CAA T54A C55G | 4.26 | 0.2 | 
40 | GAC T19A A20G A58T | 6.03 | 0.13 | 
41 | GTA A14T G15C | 2.13 | 0.5 | 
42 | GGC A20T | 2.71 | 0.17 | 
43 | AAA T53C | 0.891 | 0.37 | 
44 | GAA A20G A58C T59A | 5.03 | 0.5 | 
45 | GAT G17A A58C | 5.18 | 0.79 | 
46 | GGT T53A | 5.03 | 0.25 | 

Row | Variant | tRNA Pol-III promoter activity (log2) [1] | tRNA 3' processing efficiency [2] | tRNA 5' processing efficiency [3]
47 | GAC A20C | 0.606 | 0.4 | 
48 | GTA T8C A58C | 4.03 | 0.17 | 
49 | GAA G9C G17C T53G | 2.57 | 0.25 | 
50 | GAA A20G A58T T59C | 6.84 | 0.57 | 
51 | TAA T53C T59C | 6.75 | 0.29 | 
52 | TCA T53A | 2.71 | 0.25 | 
53 | GAG T59C | 3.35 | 0.29 | 
54 | GAA G15A A20T | -0.041 | 0.57 | 0.33
55 | AAT A58G | 8.87 | 0.18 | 
56 | GAA G15T T19C T53A | 3.93 | 0.33 | 
57 | GAA A14G G17T T59G | 3.44 | 0.4 | 
58 | GGG G17A | 3.4 | 0.44 | 
59 | AAG G9A | 1.85 | 0.25 | 
60 | AAA A20G | -0.438 | 0.4 | 
61 | CAA A58C | 1.7 | 0.5 | 
62 | TAA A14T | -2.2 | 0.5 | 
63 | ATG G15A | 3.23 | 0.25 | 
64 | GAA A14G T19G T59C | 4.81 | 0.37 | 
65 | AAC | 1.22 | 0.24 | 
66 | GTA G15A | 0.555 | 0.19 | 
67 | GGG G9T | 2.61 | 0.25 | 
68 | GGC G17A | 1.46 | 0.2 | 
69 | TAT A14C T21C | 6.53 | 0.67 | 

Row | Variant | tRNA Pol-III promoter activity (log2) [1] | tRNA 3' processing efficiency [2] | tRNA 5' processing efficiency [3]
70 | AAC G9C A58G | 5.94 | 0.25 | 
71 | ACA G15A | 4.36 | 0.15 | 
72 | GAG A14G T53A | 3.94 | 0.29 | 
73 | GGA G9A G17C G18T C55G | 5.63 | 0.31 | 
74 | GAC T19G | 3.5 | 0.41 | 
75 | GAA A14G A58T T59C | 3.02 | 0.25 | 
76 | GAA A33G A58G | 5.41 | 0.36 | 
77 | GTA T19C A58G | 5.62 | 0.11 | 0.2
78 | TCA A58T | 3.59 | 0.18 | 
79 | GAA T8A A14T C55A | 2.21 | 0.33 | 
80 | GTA G9A T59G | 2.12 | 0.25 | 
81 | GGT A20G | 2.81 | 0.5 | 
82 | GAA A14G G18A T19A | 3.13 | 0.25 | 
83 | GTA G18C A20T | 3.61 | 0.75 | 
84 | CAA G15C A20T A58T | 7.73 | 0.23 | 
85 | GAA A20T C55T A58C | 3.23 | 0.73 | 
86 | TCA T19G T59G | 5.62 | 0.33 | 
87 | GCA G15C A58G | 3.71 | 0.17 | 
88 | CTA | 2.7 | 0.3 | 
89 | GGA C55T T59C | 3.21 | 0.33 | 
90 | GGA A14C G18T T53G | 5.94 | 0.5 | 
91 | GCA A14T A20C | 4.34 | 0.62 | 
92 | GTA G15C A58G | 2.8 | 0.17 | 

Row | Variant | tRNA Pol-III promoter activity (log2) [1] | tRNA 3' processing efficiency [2] | tRNA 5' processing efficiency [3]
93 | GAA G9A T19A | 1.03 | 0.77 | 
94 | GTT G15C | 2.51 | 0.22 | 
95 | GGA A20T C55T | 3.77 | 0.2 | 
96 | GAA G9A G17T C55G | 2.71 | 0.33 | 
97 | GTA T19C | 1.31 | 0.17 | 0.2
98 | GGG G15A T19A | 6.62 | 0.5 | 
99 | GAT G15C A58T | 3.72 | 0.33 | 
100 | GCA G18A T19C | 4.74 | 0.43 | 
101 | GAC T19A T53A | 4.05 | 0.31 | 
102 | GAG T19A A58T | 3.36 | 0.25 | 
103 | GAA G15A G17C | -0.489 | 0.25 | 
104 | GAA A20T C55T T59A | 4.21 | 0.33 | 
105 | CAA A14T G17A | 3.03 | 0.29 | 
106 | GAG G9C | 0.135 | 0.43 | 
107 | GAA T53C A58G | 0.323 | 0.5 | 
108 | GGA T8C | -0.107 | 0.4 | 
109 | GCA G18A A58T | 2.96 | 0.59 | 
110 | GCA G15T | -0.484 | 0.2 | 
111 | GGA T19A A20T C55G | 6.53 | 0.33 | 
112 | TAC A20C | 4.36 | 0.25 | 
113 | GAG A14T A58C | 3.46 | 0.2 | 
114 | GAT G15A | 2.21 | 0.32 | 0.4
